According to patent publication US9844563B2, “Compositions, kits, and methods to induce acquired cytoresistance using stress protein inducers” (FRED HUTCHINSON CANCER RESEARCH CENTER, priority 2014, dated 2017):

System: Haptoglobin
Test: Dose-response after IP N-Mgb−SnPP: renal cortical and plasma haptoglobin
Assay type: in vivo, mice
Conditions: IP N-Mgb doses with fixed SnPP 1 umol

B1: N-Mgb: horse skeletal muscle myoglobin converted into a nitrited form by equimolar Na nitrite (protein, UniProt P68082 2-154, looked up)
Myoglobin: GLSDGEWQQVLNVWGKVEADIAGHGQEVLIRLFTGHPETLEKFDKFKHLKTEAEMKASEDLKKHGTVVLTALGGILKKKGHHEAELKPLAQSHATKHKIPIKYLEFISDAIIHVLHSKHPGDFGADAQGAMTKALELFRNDIAAKYKELGFQG
modifications: nitrited with sodium nitrite
correlation (r) dose administered vs plasma haptoglobin levels: 0.75 | correlation coefficient plasma vs renal concentrations, haptoglobin: 0.82
